The list does not hold the whole screen: it gathers tests that were run many times, whatever their T/C, doses with no T/C, and many T/C values between a quarter and a half above the control. Other doses and runs of a compound stand elsewhere. T/C is the treated group as % of the vehicle group. Some entries give survivors of the animals treated and no T/C: the source files T/C as zero there, which appears to mark a toxic dose or a test without result, not a measured value. Some survivor counts are full or nearly so, which does not show that the dose was tolerated: survival well below the control is almost never listed, so the zero probably covers shortened survival too. Survivors were counted at the toxicity check, usually on the fifth day, unless a day is given; later deaths do not show. Schedules are NCI's codes, read here as Q, the interval in days (D) or hours (H), X, the number of doses. Some doses were run more than once; their values stand side by side, smallest first. Some schedule codes hold Z or #, which are not explained here. Where survival is the endpoint, the PubChem record calls one and a half times the control and up active, and a quarter to a half above the control has no call in these data; cut-offs in other NCI protocols can differ. Some T/C values carry the count of animals alive at the toxicity check (mostly the fifth day); without a count, all were alive then.
Tested on: Lewis lung carcinoma i.m., BDF1 mice, T/C %
Experiment: NCI In Vivo Anticancer Drug Screen. Data for tumor model Lewis Lung Carcinoma (intramuscular) in B6D2F1 (BDF1) mice
In short: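 Value is the ratio of a treated-group measurement (T) to the matching vehicle-control measurement (C), using either survival or tumour size in mice bearing transplanted tumours.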

[1] = T/C endpoint: median survival time, dose: 2.0 mg/kg/injection, schedule: Q01DX009 (ip), vehicle: saline + alcohol, higher T/C = longer survival
[2] = T/C endpoint: median survival time, dose: 4.0 mg/kg/injection, schedule: Q01DX011 (ip), vehicle: saline, higher T/C = longer survival
[3] = T/C endpoint: median survival time, dose: 8.0 mg/kg/injection, schedule: Q01DX009 (ip), vehicle: saline + alcohol, higher T/C = longer survival
[4] = T/C endpoint: median survival time, dose: 10.0 mg/kg/injection, schedule: Q01DX015 (ip), vehicle: saline, higher T/C = longer survival
[5] = T/C endpoint: median survival time, dose: 16.0 mg/kg/injection, schedule: Q01DX009 (ip), vehicle: saline + alcohol, higher T/C = longer survival
[6] = T/C endpoint: median survival time, dose: 64.0 mg/kg/injection, schedule: Q01DX011 (ip), vehicle: saline, higher T/C = longer survival

## O=NN(CCCl)C(=O)NCCCl
[1]
  T/C: 129 % of control
T/C endpoint: median survival time, dose: 2.0 mg/kg/injection, schedule: Q01DX011 (ip), vehicle: saline, higher T/C = longer survival
  survivor count: 10 of 10
T/C endpoint: median survival time, dose: 3.0 mg/kg/injection, schedule: Q01DX011 (ip), vehicle: saline, higher T/C = longer survival
  T/C: 144 % of control
[2]
  T/C: 134 % of control
T/C endpoint: median survival time, dose: 5.0 mg/kg/injection, schedule: Q07DX003 (ip), vehicle: saline, higher T/C = longer survival
  survivor count: 8 of 8
T/C endpoint: median survival time, dose: 6.0 mg/kg/injection, schedule: Q01DX011 (ip), vehicle: other, higher T/C = longer survival
  T/C: 130 % of control [7 of 8 alive]
[3]
  T/C: 134 % of control
T/C endpoint: median survival time, dose: 8.4 mg/kg/injection, schedule: Q07DX003 (ip), vehicle: saline, higher T/C = longer survival
  survivor count: 8 of 8
T/C endpoint: median survival time, dose: 8.4 mg/kg/injection, schedule: Q16DX002 (ip), vehicle: saline, higher T/C = longer survival
  T/C: 141 % of control
T/C endpoint: median survival time, dose: 8.4 mg/kg/injection, schedule: Q## X002 (ip), vehicle: saline, higher T/C = longer survival
  T/C: 142 % of control
[4]
  survivor count: 8 of 8
T/C endpoint: median survival time, dose: 12.0 mg/kg/injection, schedule: Q01DX011 (ip), vehicle: other, higher T/C = longer survival
  survivor count: 4 of 8
T/C endpoint: median survival time, dose: 12.0 mg/kg/injection, schedule: Q01DX011 (ip), vehicle: saline, higher T/C = longer survival
  survivor count: 3 of 8
[5]
  survivor count: 10 of 10
T/C endpoint: median survival time, dose: 16.0 mg/kg/injection, schedule: Q01DX011 (ip), vehicle: saline, higher T/C = longer survival
  survivor count: 5 of 10
T/C endpoint: median survival time, dose: 23.0 mg/kg/injection, schedule: Q01DX001 (sc), vehicle: saline, higher T/C = longer survival
  T/C: 145 % of control
T/C endpoint: median survival time, dose: 32.0 mg/kg/injection, schedule: Q01DX011 (ip), vehicle: saline, higher T/C = longer survival
  survivor count: 0 of 10 and 8 of 10
T/C endpoint: median survival time, dose: 39.0 mg/kg/injection, schedule: Q01DX001 (sc), vehicle: saline, higher T/C = longer survival
  T/C: 143 % of control
T/C endpoint: median survival time, dose: 39.0 mg/kg/injection, schedule: Q07DX003 (ip), vehicle: saline, higher T/C = longer survival
  survivor count: 7 of 8
T/C endpoint: median survival time, dose: 39.0 mg/kg/injection, schedule: Q## X002 (ip), vehicle: saline, higher T/C = longer survival
  survivor count: 4 of 8
T/C endpoint: median survival time, dose: 40.0 mg/kg/injection, schedule: Q07DX003 (ip), vehicle: saline, higher T/C = longer survival
  survivor count: 8 of 8
[6]
  survivor count: 0 of 10
T/C endpoint: median survival time, dose: 65.0 mg/kg/injection, schedule: Q01DX001 (ip), vehicle: saline, higher T/C = longer survival
  survivor count: 0 of 8
T/C endpoint: median survival time, dose: 65.0 mg/kg/injection, schedule: Q01DX001 (sc), vehicle: saline, higher T/C = longer survival
  survivor count: 8 of 8
T/C endpoint: median survival time, dose: 65.0 mg/kg/injection, schedule: Q06DX002 (ip), vehicle: saline, higher T/C = longer survival
  survivor count: 2 of 8
T/C endpoint: median survival time, dose: 65.0 mg/kg/injection, schedule: Q## X002 (ip), vehicle: saline, higher T/C = longer survival
  survivor count: 0 of 8

## FC(F)(F)c1nc2nc(Cl)c(Cl)nc2[nH]1
[2]
  survivor count: 7 of 8
[6]
  survivor count: 8 of 8
T/C endpoint: median survival time, dose: 128.0 mg/kg/injection, schedule: Q01DX011 (ip), vehicle: saline, higher T/C = longer survival
  survivor count: 3 of 8

## CC1CCC(NC(=O)N(CCCl)N=O)CC1 (stereo unspecified)
[1]
  T/C: 129 % of control
T/C endpoint: median survival time, dose: 4.0 mg/kg/injection, schedule: Q01DX015 (ip), vehicle: saline, higher T/C = longer survival
  survivor count: 7 of 8
T/C endpoint: median survival time, dose: 6.25 mg/kg/injection, schedule: Q01DX017 (ip), vehicle: saline, higher T/C = longer survival
  survivor count: 9 of 10
T/C endpoint: median survival time, dose: 6.25 mg/kg/injection, schedule: Q06HX012 (ip), vehicle: saline, higher T/C = longer survival
  T/C: 127 % of control
[3]
  T/C: 131 % of control
T/C endpoint: median survival time, dose: 9.8 mg/kg/injection, schedule: Q01DX015 (ip), vehicle: saline, higher T/C = longer survival
  T/C: 139 % of control
[4]
  survivor count: 8 of 8
T/C endpoint: median survival time, dose: 12.5 mg/kg/injection, schedule: Q01DX017 (ip), vehicle: saline, higher T/C = longer survival
  survivor count: 3 of 10
[5]
  survivor count: 10 of 10
T/C endpoint: median survival time, dose: 16.0 mg/kg/injection, schedule: Q01DX011 (ip), vehicle: saline with Tween-80, higher T/C = longer survival
  survivor count: 0 of 10 and 7 of 10
T/C endpoint: median survival time, dose: 20.0 mg/kg/injection, schedule: Q01DX015 (ip), vehicle: saline, higher T/C = longer survival
  survivor count: 8 of 8
T/C endpoint: median survival time, dose: 24.0 mg/kg/injection, schedule: Q14DX002 (ip), vehicle: saline, higher T/C = longer survival
  T/C: 134 % of control
T/C endpoint: median survival time, dose: 25.0 mg/kg/injection, schedule: Q01DX017 (ip), vehicle: saline, higher T/C = longer survival
  survivor count: 0 of 10
T/C endpoint: median survival time, dose: 25.0 mg/kg/injection, schedule: Q06HX004 (ip), vehicle: saline, higher T/C = longer survival
  survivor count: 0 of 10
T/C endpoint: median survival time, dose: 25.0 mg/kg/injection, schedule: Q06HX012 (ip), vehicle: saline, higher T/C = longer survival
  survivor count: 5 of 10
T/C endpoint: median survival time, dose: 32.0 mg/kg/injection, schedule: Q01DX011 (ip), vehicle: saline with Tween-80, higher T/C = longer survival
  survivor count: 0 of 10 and 2 of 10
T/C endpoint: median survival time, dose: 39.0 mg/kg/injection, schedule: Q01DX001 (sc), vehicle: Klucel (hydroxypropylcellulose) (HPC), higher T/C = longer survival
  T/C: 141 % of control [7 of 8 alive]
T/C endpoint: median survival time, dose: 50.0 mg/kg/injection, schedule: Q06HX004 (ip), vehicle: saline, higher T/C = longer survival
  survivor count: 0 of 10
T/C endpoint: median survival time, dose: 50.0 mg/kg/injection, schedule: Q08DX003 (ip), vehicle: saline, higher T/C = longer survival
  survivor count: 8 of 10
T/C endpoint: median survival time, dose: 56.0 mg/kg/injection, schedule: Q01DX001 (ip), vehicle: saline, higher T/C = longer survival
  survivor count: 5 of 8
T/C endpoint: median survival time, dose: 56.0 mg/kg/injection, schedule: Q14DX002 (ip), vehicle: saline, higher T/C = longer survival
  survivor count: 5 of 8
T/C endpoint: median survival time, dose: 60.0 mg/kg/injection, schedule: Q07DX003 (ip), vehicle: saline, higher T/C = longer survival
  survivor count: 8 of 8
T/C endpoint: median survival time, dose: 64.0 mg/kg/injection, schedule: Q01DX011 (ip), vehicle: saline with Tween-80, higher T/C = longer survival
  survivor count: 0 of 10
T/C endpoint: median survival time, dose: 65.0 mg/kg/injection, schedule: Q07DX003 (ip), vehicle: saline, higher T/C = longer survival
  survivor count: 3 of 8
T/C endpoint: median survival time, dose: 70.0 mg/kg/injection, schedule: Q01DX001 (ip), vehicle: saline, higher T/C = longer survival
  survivor count: 0 of 8
T/C endpoint: median survival time, dose: 70.0 mg/kg/injection, schedule: Q07DX003 (ip), vehicle: saline, higher T/C = longer survival
  survivor count: 1 of 8
T/C endpoint: median survival time, dose: 70.0 mg/kg/injection, schedule: Q14DX002 (ip), vehicle: saline, higher T/C = longer survival
  survivor count: 1 of 8
T/C endpoint: median survival time, dose: 100.0 mg/kg/injection, schedule: Q01DX001 (ip), vehicle: saline, higher T/C = longer survival
  survivor count: 3 of 10
T/C endpoint: median survival time, dose: 100.0 mg/kg/injection, schedule: Q08DX003 (ip), vehicle: saline, higher T/C = longer survival
  survivor count: 0 of 10
T/C endpoint: median survival time, dose: 128.0 mg/kg/injection, schedule: Q01DX011 (ip), vehicle: saline with Tween-80, higher T/C = longer survival
  survivor count: 0 of 10
T/C endpoint: median survival time, dose: 256.0 mg/kg/injection, schedule: Q01DX011 (ip), vehicle: saline with Tween-80, higher T/C = longer survival
  survivor count: 0 of 10

## CN1C=c2c3c(ccc2=C2C=CC4C=C5OCOC5=CC4=C21)OCO3 (stereo unspecified)
T/C endpoint: median survival time, dose: 30.0 mg/kg/injection, schedule: Q01DX011 (ip), vehicle: saline with Tween-80, higher T/C = longer survival
  survivor count: 0 of 8
T/C endpoint: median survival time, dose: 60.0 mg/kg/injection, schedule: Q01DX011 (ip), vehicle: saline with Tween-80, higher T/C = longer survival
  survivor count: 0 of 8

## CS(=O)(=O)OCC(O)C(O)COS(C)(=O)=O (stereo unspecified)
T/C endpoint: median survival time, dose: 200.0 mg/kg/injection, schedule: Q01DX011 (ip), vehicle: saline, higher T/C = longer survival
  survivor count: 4 of 8
T/C endpoint: median survival time, dose: 800.0 mg/kg/injection, schedule: Q01DX011 (ip), vehicle: saline, higher T/C = longer survival
  survivor count: 5 of 8

## CN1CCN(c2ccc([N+](=O)[O-])c3no[n+]([O-])c23)CC1
T/C endpoint: median survival time, dose: 5.0 mg/kg/injection, schedule: Q02DX011 (ip), vehicle: saline with Tween-80, higher T/C = longer survival
  survivor count: 19 of 19

## COc1cc([C@@H]2c3cc4c(cc3[C@@H](OC3OC5COC(C)OC5C(O)C3O)[C@H]3COC(=O)[C@H]23)OCO4)cc(OC)c1O (stereo partly specified)
T/C endpoint: mean tumor weight (est.), dose: 10.0 mg/kg/injection, schedule: Q01DX011 (ip), vehicle: saline, higher T/C = larger tumour
  survivor count: 2 of 8
